Several values for one entry are separate records, joined by “and”; a condition that tells them apart may be missing. Equal values may be shown once.
What was measured:
[1] = general procedure: Fmoc solid-phase peptide synthesis; Rink Amide MBHA resin; DCC/HOBt; DIPCDI/HOOBt; DIPCDI/HOAt; PyAOP/HOAt/DIEA; PyBrop/HOAt/DIEA; settings: whole synthesis, acetate
[2] = general procedure: Fmoc solid-phase peptide synthesis; Fmoc-Rink Amide MBHA resin; DCC/HOBt; DIPCDI/HOOBt; DIPCDI/HOAt; PyAOP/HOAt/DIEA; PyBrop/HOAt/DIEA; settings: whole synthesis, scale 0.55 mmol, acetate
[3] = general procedure: Fmoc solid-phase peptide synthesis; Rink Amide MBHA; DCC/HOBt; DIPCDI/HOOBt; DIPCDI/HOAt; PyAOP/HOAt/DIEA; PyBrop/HOAt/DIEA; settings: whole synthesis, scale 0.25 mmol, acetate; run 1

Q: For “des(1)-Ac-[D-Tyr2,Hyp3,Alb4,Thr5,Cha6,Gly7Ψ((E)CH═CH)Leu8,Arg(Me)9,Trp 10]MS10”, which isolated mass ([1]; scale 1.5 mmol, run 1) is on record?
A: 352.2 mg

Q: And the isolated mass ([1]; scale 1.5 mmol, run 2)?
A: 321.8 mg

Q: With “des(1)-Ac-[D-Tyr2,Hyp3,Alb4,Thr5,Cha6,Gly7Ψ((E)CH═CH)Leu8,Trp 10]MS10” as the substance, how does the isolated mass [2] read?
A: 436.9 mg

Q: Which isolated mass [3] does the source give for “des(1)-Ac-[D-Tyr2,Hyp3,Thr5,Arg(Me)9,Trp 10]MS10” here?
A: 114.6 mg and 93.4 mg

Q: Which results are given for “des(1)-Ac-[D-Tyr2,Hyp3,Thr5,Cha6,Ala(cPr)8,Arg(Me)9,Trp 10]MS10”?
A: crude mass ([1]; scale 0.952 mmol): 1.118 g; isolated mass ([1]; scale 0.952 mmol, run 1): 389.3 mg; isolated mass ([1]; scale 0.952 mmol, run 2): 368.6 mg

Q: For “des(1)-Ac-[D-Tyr2,Hyp3,Thr5,Gly7Ψ((E)CH═CH)Leu8,Arg(Me)9,Trp10]MS10”, which isolated mass ([1]; scale 0.1 mmol) is on record?
A: 19.6 mg

Q: With “des(1)-Ac-[D-Tyr2,Hyp3,Thr5,Gly7Ψ(CH2NH)Leu8,Arg(Me)9,Trp10]MS10 (YPNTFGLRW; D-residues; N-methyl; non-natural residues)” as the substance, how does the isolated mass ([1]; scale 0.05 mmol) read?
A: 0.6 mg

Q: For “des(1)-Ac-[D-Tyr2,Hyp3,Thr5,Gly7Ψ(CH2S)Leu8,Arg(Me)9,Trp10]MS10”, which isolated mass ([1]; scale 0.02 mmol) is on record?
A: 2.7 mg

Q: For “des(1)-Ac-[D-Tyr2,Hyp3,Thr5,Phe6T(CH2CH2)AzaGly7,Arg(Me)9,Trp10]MS10”, which isolated mass ([1]; scale 0.03 mmol) is on record?
A: 3.6 mg

Q: With “des(1)-Ac-[D-Tyr2,Hyp3,Thr5,Phe6T(CH2S)Gly7,Arg(Me)9,Trp 10]MS10” as the substance, how does the isolated mass ([1]; scale 0.045 mmol) read?
A: 5.0 mg

Q: For “des(1)-Ac-[D-Tyr2,Hyp3,Thr5,Phe6Ψ(CH2O)Gly7,Arg(Me)9,Trp 10]MS10”, which isolated mass ([1]; scale 25 μmol, run 1) is on record?
A: 2.5 mg and 2.0 mg
